The list shows a part of the results. Most values lie at the level of the controls, where differences are scatter.

Protein sequences, listed by entry. Tags and fused reporters are not part of them. Lines headed by an entry give the natural chain unless they say otherwise; changes in a name come on top.
UniProt P00579, whole entry: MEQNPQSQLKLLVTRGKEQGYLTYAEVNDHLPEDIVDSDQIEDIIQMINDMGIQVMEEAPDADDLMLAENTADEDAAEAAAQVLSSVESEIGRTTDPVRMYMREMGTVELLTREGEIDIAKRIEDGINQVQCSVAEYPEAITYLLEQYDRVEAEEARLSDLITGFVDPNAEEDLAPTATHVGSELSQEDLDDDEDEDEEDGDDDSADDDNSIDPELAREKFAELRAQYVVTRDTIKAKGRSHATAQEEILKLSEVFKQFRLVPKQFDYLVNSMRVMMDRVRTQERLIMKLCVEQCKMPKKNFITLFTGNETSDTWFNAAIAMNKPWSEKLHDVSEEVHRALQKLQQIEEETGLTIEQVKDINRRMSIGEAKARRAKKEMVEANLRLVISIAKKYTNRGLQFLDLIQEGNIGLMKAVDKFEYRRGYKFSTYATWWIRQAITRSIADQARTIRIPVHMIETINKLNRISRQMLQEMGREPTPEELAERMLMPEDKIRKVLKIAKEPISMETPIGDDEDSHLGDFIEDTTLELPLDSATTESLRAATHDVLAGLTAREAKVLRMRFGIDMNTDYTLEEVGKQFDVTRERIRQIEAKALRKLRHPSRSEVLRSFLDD
UniProt P09323: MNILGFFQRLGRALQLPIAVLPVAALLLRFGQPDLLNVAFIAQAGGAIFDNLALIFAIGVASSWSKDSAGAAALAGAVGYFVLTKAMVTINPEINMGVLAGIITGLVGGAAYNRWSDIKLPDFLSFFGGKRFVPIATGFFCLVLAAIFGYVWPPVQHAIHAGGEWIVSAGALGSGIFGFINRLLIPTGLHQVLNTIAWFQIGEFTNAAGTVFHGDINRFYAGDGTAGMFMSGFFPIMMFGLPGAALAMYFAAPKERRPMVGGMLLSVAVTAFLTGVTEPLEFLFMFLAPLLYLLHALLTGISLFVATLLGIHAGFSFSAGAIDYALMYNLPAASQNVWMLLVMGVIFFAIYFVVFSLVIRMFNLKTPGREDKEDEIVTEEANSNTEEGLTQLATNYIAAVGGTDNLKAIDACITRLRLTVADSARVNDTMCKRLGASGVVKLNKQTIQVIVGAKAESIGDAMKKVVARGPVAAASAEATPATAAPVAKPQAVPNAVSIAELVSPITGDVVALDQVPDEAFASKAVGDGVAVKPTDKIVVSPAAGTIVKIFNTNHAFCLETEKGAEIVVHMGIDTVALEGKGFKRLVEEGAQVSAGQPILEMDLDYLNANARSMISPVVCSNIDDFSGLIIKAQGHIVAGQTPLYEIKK
UniProt P06710: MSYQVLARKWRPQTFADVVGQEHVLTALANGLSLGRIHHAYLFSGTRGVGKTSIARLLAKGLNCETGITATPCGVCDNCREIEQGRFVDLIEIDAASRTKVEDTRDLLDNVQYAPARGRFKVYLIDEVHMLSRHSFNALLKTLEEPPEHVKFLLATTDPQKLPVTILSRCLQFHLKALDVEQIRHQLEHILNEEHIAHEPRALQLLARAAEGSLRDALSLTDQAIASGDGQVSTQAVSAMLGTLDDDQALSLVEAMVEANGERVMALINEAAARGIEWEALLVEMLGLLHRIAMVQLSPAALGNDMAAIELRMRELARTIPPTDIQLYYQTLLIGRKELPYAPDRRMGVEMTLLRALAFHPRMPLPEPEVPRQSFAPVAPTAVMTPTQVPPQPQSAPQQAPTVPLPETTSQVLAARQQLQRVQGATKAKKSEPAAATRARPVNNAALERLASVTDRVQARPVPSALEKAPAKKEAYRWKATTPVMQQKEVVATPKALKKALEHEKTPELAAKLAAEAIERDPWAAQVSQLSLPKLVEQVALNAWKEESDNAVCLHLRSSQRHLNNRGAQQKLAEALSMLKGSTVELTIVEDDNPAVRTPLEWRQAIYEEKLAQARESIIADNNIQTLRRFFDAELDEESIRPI
UniProt P07604: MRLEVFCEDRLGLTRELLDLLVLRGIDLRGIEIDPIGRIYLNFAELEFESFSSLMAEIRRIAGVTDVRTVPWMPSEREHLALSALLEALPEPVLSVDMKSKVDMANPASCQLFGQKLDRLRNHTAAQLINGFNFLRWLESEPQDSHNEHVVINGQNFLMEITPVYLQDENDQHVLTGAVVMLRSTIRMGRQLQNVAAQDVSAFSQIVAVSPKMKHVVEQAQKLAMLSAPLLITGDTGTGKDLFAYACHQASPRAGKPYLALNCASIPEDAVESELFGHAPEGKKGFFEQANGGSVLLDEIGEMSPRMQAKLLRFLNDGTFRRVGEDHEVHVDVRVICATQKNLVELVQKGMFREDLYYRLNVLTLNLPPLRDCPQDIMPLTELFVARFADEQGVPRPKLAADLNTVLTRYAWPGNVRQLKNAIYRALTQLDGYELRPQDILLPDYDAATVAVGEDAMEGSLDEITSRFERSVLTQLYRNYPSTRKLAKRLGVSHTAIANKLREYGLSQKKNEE
UniProt P08369: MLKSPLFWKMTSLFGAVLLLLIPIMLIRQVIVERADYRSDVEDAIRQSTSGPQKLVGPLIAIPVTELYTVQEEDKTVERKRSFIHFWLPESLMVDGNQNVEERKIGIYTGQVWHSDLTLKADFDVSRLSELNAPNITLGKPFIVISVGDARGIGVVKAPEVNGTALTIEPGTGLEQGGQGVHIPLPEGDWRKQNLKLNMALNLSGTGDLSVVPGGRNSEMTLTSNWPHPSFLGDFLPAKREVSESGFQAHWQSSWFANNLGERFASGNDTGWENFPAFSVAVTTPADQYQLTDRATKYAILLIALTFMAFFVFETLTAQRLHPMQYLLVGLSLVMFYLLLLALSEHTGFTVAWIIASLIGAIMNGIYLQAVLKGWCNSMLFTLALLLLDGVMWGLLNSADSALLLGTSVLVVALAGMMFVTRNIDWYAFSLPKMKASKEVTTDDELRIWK
UniProt P08194: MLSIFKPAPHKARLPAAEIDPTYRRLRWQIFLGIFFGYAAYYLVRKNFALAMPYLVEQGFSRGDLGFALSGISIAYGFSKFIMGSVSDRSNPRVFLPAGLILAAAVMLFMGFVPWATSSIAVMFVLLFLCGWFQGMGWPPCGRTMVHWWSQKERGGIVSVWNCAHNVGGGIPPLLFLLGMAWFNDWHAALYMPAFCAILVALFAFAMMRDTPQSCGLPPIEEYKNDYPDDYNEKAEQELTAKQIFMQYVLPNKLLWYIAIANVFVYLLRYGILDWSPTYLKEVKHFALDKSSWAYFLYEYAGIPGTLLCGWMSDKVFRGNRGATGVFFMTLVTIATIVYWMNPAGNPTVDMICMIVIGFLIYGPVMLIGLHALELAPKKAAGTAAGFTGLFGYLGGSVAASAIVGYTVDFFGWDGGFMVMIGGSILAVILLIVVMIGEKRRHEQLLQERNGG
UniProt P00904: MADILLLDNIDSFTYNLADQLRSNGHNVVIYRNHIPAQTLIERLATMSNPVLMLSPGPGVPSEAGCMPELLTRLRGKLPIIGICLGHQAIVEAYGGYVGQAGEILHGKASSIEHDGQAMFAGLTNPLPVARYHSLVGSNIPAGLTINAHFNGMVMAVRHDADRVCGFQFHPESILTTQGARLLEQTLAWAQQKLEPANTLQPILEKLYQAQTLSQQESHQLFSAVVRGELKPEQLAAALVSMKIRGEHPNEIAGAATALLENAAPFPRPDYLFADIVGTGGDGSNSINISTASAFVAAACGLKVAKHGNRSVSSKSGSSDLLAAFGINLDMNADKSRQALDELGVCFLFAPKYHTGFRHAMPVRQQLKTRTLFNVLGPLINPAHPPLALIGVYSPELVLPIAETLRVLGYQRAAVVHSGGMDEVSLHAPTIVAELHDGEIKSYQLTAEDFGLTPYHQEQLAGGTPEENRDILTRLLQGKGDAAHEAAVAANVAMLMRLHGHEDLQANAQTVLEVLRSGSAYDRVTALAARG
UniProt P04391: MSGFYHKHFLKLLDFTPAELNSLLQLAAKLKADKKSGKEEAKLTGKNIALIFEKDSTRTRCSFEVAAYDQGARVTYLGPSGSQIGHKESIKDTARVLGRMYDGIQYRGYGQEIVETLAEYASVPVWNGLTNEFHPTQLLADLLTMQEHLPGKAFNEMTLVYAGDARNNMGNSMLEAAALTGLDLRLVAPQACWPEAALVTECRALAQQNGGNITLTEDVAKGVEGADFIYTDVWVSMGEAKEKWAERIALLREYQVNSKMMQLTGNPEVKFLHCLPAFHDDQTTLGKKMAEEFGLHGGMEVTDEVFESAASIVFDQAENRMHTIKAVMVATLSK
UniProt P05824: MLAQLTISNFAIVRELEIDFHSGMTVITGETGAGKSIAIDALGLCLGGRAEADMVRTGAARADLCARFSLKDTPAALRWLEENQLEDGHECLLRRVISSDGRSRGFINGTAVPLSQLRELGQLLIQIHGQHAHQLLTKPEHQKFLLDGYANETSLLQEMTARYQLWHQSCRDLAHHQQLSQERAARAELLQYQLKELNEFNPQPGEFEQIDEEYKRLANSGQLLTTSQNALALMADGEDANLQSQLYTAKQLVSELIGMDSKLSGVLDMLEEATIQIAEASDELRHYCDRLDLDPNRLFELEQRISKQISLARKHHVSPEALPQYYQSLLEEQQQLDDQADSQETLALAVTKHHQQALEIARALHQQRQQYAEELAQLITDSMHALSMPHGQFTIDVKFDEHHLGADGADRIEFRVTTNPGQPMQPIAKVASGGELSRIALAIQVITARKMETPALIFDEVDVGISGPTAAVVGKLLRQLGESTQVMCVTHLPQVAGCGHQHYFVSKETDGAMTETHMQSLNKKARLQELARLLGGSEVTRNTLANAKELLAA
UniProt P09184: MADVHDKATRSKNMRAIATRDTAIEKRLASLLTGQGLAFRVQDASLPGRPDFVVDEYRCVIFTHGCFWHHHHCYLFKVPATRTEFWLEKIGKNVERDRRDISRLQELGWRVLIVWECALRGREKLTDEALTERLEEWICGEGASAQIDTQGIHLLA
UniProt P07023: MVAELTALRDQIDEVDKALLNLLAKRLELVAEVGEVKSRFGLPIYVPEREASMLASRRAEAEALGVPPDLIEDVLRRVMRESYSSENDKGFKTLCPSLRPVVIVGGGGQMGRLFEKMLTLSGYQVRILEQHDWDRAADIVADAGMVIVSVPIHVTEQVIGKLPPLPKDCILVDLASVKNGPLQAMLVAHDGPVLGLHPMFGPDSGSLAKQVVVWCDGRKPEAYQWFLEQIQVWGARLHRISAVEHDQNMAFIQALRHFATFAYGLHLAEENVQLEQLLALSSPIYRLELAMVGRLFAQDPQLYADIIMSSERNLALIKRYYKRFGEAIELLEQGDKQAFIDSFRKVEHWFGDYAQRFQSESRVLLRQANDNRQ
UniProt P09152: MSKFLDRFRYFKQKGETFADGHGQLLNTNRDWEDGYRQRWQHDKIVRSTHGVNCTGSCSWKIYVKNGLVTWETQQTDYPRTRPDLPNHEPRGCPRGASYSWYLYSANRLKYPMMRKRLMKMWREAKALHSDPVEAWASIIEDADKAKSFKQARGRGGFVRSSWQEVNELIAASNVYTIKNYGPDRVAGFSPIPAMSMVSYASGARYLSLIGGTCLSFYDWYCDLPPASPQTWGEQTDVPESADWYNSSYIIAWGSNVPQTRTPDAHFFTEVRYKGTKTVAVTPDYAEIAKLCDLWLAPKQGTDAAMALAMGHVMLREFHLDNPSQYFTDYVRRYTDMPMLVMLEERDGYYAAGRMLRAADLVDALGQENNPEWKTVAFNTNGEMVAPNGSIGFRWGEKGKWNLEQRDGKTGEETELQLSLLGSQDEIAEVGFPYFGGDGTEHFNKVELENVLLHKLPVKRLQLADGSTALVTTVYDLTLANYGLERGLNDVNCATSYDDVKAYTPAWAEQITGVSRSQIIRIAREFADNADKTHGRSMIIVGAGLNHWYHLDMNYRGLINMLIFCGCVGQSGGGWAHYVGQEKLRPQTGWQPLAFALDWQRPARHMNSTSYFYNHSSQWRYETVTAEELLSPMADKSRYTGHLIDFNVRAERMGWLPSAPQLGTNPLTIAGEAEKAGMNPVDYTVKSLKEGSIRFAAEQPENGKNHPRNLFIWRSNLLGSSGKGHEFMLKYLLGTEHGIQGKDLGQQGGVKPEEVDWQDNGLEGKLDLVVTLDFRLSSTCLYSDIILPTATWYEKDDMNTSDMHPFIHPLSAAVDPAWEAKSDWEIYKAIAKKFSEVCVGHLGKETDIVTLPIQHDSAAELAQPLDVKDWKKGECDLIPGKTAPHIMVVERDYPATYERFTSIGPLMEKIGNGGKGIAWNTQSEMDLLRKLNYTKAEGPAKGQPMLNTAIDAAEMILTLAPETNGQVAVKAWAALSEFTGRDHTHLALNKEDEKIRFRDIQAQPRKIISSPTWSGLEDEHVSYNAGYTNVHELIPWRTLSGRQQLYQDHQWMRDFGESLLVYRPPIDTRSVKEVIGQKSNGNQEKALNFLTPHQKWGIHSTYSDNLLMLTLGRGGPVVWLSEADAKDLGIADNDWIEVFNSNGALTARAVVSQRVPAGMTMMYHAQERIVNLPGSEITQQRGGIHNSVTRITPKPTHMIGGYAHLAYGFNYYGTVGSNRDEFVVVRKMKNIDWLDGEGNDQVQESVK

We go through 35 targets from the supplement of paper PMC12819154, “High-throughput peptide-centric local stability assay extends protein–ligand identification to membrane proteins, tissues and bacteria” (Nature Structural & Molecular Biology, 2025).

Compound in the assay: CC1(C)S[C@@H]2[C@H](NC(=O)[C@H](N)c3ccccc3)C(=O)N2[C@H]1C(=O)O [ampicillin]
Put plainly: log2 fold change of tryptic peptide abundance, ligand vs vehicle (limited proteolysis) (log2 ratio); higher = more trypsin-susceptible (destabilized). As to conditions: ligand concentration: 10 uM; sample: E. coli crude lysate.
Regarding “UniProt P04949 (peptide sequence: SRLDEIDR, peptide start residue: 118)”, the log2 fold change worked out at 0.481.

“UniProt P00579 (peptide sequence: AVDKFEYR, peptide start residue: 415)”: the log2 fold change is -0.178.

“UniProt P09323 (peptide sequence: LNKQTIQVIVGAK, peptide start residue: 442)”: the log2 fold change amounted to 0.565.

For “UniProt P03030 (peptide sequence: HDLGLTETLHTPAGTER, peptide start residue: 144)”, the log2 fold change is 0.354.

Take “UniProt P06710 (peptide sequence: MPLPEPEVPR, peptide start residue: 363)”: the log2 fold change was -0.123.

For the target “UniProt P07604 (peptide sequence: SKVDMANPASCQLFGQK, peptide start residue: 100)”, the log2 fold change is 0.26.

In the case of “UniProt P08369 (peptide sequence: EVTTDDELR, peptide start residue: 439)”, the log2 fold change is -0.336.

Turning to “UniProt P08194 (peptide sequence: AEQELTAK, peptide start residue: 235)”, the log2 fold change was found to be 0.147.

Take “UniProt P08394 (peptide sequence: SVWHCSLGVAPLVR, peptide start residue: 809)”: the log2 fold change came to 0.241.

As for “UniProt P00904 (peptide sequence: LHGHEDLQANAQTVLEVLR, peptide start residue: 498)”, the log2 fold change was -0.53.

Turning to “UniProt P06615 (peptide sequence: TGRTEKAR, peptide start residue: 161)”, the log2 fold change was -0.235.

“UniProt P00903 (peptide sequence: GLANPLTVTR, peptide start residue: 117)”: the log2 fold change is -0.102.

Turning to “UniProt P00893 (peptide sequence: AFWLAASGRPGPVVVDLPK, peptide start residue: 145)”, the log2 fold change is 0.156.

“UniProt P04391 (peptide sequence: MYDGIQYR, peptide start residue: 100)”: the log2 fold change is -0.252.

For the target “UniProt P06721 (peptide sequence: YTLGAVNSVIQR, peptide start residue: 19)”, the log2 fold change stood at 0.152.

Turning to “UniProt P00895 (peptide sequence: IQASLFAPNEEEKQR, peptide start residue: 193)”, the log2 fold change is -0.588.

Take “UniProt P00888 (peptide sequence: SISDIIAGRDPR, peptide start residue: 43)”: the log2 fold change was -0.131.

As to “UniProt P09029 (peptide sequence: DVFPIIADR, peptide start residue: 72)”, the log2 fold change worked out at 0.279.

Turning to “UniProt P05824 (peptide sequence: ETDGAMTETHMQSLNKK, peptide start residue: 508)”, the log2 fold change was -0.354.

Regarding “UniProt P06971 (peptide sequence: GASNTYDHLIIR, peptide start residue: 115)”, the log2 fold change turned out to be 0.517.

Regarding “UniProt P03841 (peptide sequence: GVGNSIPDIPDPVARHTTDGLLKLK, peptide start residue: 184)”, the log2 fold change worked out at 0.621.

Turning to “UniProt P08179 (peptide sequence: LKMHENAAWLDGQR, peptide start residue: 189)”, the log2 fold change was found to be 0.205.

With “UniProt P09184 (peptide sequence: TEFWLEK, peptide start residue: 83)”, the log2 fold change turned out to be 0.0682.

For “UniProt P06149 (peptide sequence: HAHDYDYVHR, peptide start residue: 222)”, the log2 fold change is 0.44.

Consider “UniProt P07023 (peptide sequence: ESYSSENDKGFK, peptide start residue: 81)”, for which the log2 fold change is -0.147.

As for “UniProt P08956 (peptide sequence: TKSGIWYRDVR, peptide start residue: 391)”, the log2 fold change was -0.707.

Consider “UniProt P00914 (peptide sequence: VLALYIATPR, peptide start residue: 31)”, for which the log2 fold change was -0.558.

Take “UniProt P07464 (peptide sequence: LFTDMCEGLPEKR, peptide start residue: 14)”: the log2 fold change is -0.325.

For the target “UniProt P09152 (peptide sequence: KGECDLIPGKTAPHIMVVER, peptide start residue: 872)”, the log2 fold change worked out at 0.31.

As for “UniProt P07013 (peptide sequence: VSPSGIPHCQFVLEHR, peptide start residue: 19)”, the log2 fold change came to 0.4.

On to “UniProt P02358 (peptide sequence: QLAYPINKLHK, peptide start residue: 46)”, for which the log2 fold change is -0.165.

In the case of “UniProt P08245 (peptide sequence: LVYSTETGRIDEPK, peptide start residue: 8)”, the log2 fold change was -0.336.

Regarding “UniProt P00968 (peptide sequence: STGEVMGVGRTFAEAFAK, peptide start residue: 913)”, the log2 fold change was -0.381.

Consider “UniProt P09154 (peptide sequence: LKEDELK, peptide start residue: 97)”, for which the log2 fold change was 0.0781.

In the case of “UniProt P0A6H5 (peptide sequence: NILMIGPTGVGKTEIAR, peptide start residue: 52)”, the log2 fold change is -0.27.
